PubChem BioAssay AID1224826, NIAID, 2016
The deposit covers about 17,000 reagents; this is a part drawn at random. In the full data, about 1,110 (6.6%) are marked active. 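Active means lowered or raised reporter signal; replicate intensities are raw and not normalised per plate.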 Reagent sequences are not shown.

Assay: 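Genes that change LPS-induced Tnf promoter activity in mouse macrophages when knocked down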 (primary screen)
Cell system: RAW264.7 G9 macrophages from mouse bearing reporters for p65 (GFP) and the Tnf promoter (mCherry)
Reagent: siRNA pool against mouse genes, 100 nM
Timing: 16 h of LPS stimulation, after 2 days of siRNA transfection
Treatment: bacterial lipopolysaccharide (Salmonella minnesota R595), 10 ng/ml
Read-out: 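Imaged Tnf reporter mCherry in nuclei, minus background, normalised per plate to the median and expressed as robust z-scores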
Scale: Tnf reporter robust z-score: higher = stronger Tnf promoter reporter signal after LPS; Tnf reporter intensity: higher = stronger Tnf promoter reporter signal
Active means: 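Called active when robust z-score is at most -1.3, matching the median of the Tlr4 knock-down control, or over 3; control wells and wells with under 50 cells never active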
Meaning of the calls: active = Tnf reporter clearly lowered or raised; inactive = no clear change in Tnf reporter

| gene knocked down | PubChem SID | Tnf reporter robust z-score | fewer than 50 cells in well | Tnf reporter intensity, replicate 1 | Tnf reporter intensity, replicate 2 | outcome |
| --- | --- | --- | --- | --- | --- | --- |
| Elfn1 | SID315479673 | -0.79 | enough cells in well | 90.7 | 151 | inactive |
| Cd276 (CD276 antigen) | SID315476344 | -0.94 | enough cells in well | 138 | 83.9 | inactive |
| Oxct1 (3-oxoacid CoA transferase 1) | SID315472796 | 1.54 | enough cells in well | 386 | 262 | inactive |
| Aars1 (alanyl-tRNA synthetase 1) | SID315479195 | 0.63 | enough cells in well | 191 | 204 | inactive |
| Maoa (monoamine oxidase A) | SID315467826 | 0.21 | enough cells in well | 298 | 207 | inactive |
| Bhmt2 (betaine-homocysteine methyltransferase 2) | SID315472129 | – | fewer than 50 cells per well; well left out of calls | 155 | 132 | inactive |
| Cxcl12 (C-X-C motif chemokine ligand 12) | SID315469150 | -0.45 | enough cells in well | 147 | 312 | inactive |
| Megf6 (multiple EGF-like-domains 6) | SID315478848 | -0.1 | enough cells in well | 154 | 128 | inactive |
| Stard4 (StAR related lipid transfer domain containing 4) | SID315477170 | 2.3 | enough cells in well | 189 | 98.5 | inactive |
| Lratd2 (LRAT domain containing 2) | SID315481887 | 1.1 | enough cells in well | 344 | 151 | inactive |
| Dus1l (dihydrouridine synthase 1 like) | SID315473617 | 1.94 | enough cells in well | 458 | 64.8 | inactive |
| Pbld1 (phenazine biosynthesis-like protein domain containing 1) | SID315473517 | -0.47 | enough cells in well | 239 | 51.5 | inactive |
| Elovl6 (ELOVL fatty acid elongase 6) | SID315477166 | 0.22 | enough cells in well | 179 | 138 | inactive |
| Glce (glucuronyl C5-epimerase) | SID315475918 | 1.19 | enough cells in well | 327 | 141 | inactive |
| Ccdc28a (coiled-coil domain containing 28A) | SID315477953 | -0.05 | enough cells in well | 216 | 80 | inactive |
| 1700123K08Rik (RIKEN cDNA 1700123K08 gene) | SID315475358 | -0.82 | enough cells in well | 157 | 88.3 | inactive |
| Dcaf7 (DDB1 and CUL4 associated factor 7) | SID315474342 | – | fewer than 50 cells per well; well left out of calls | 160 | 169 | inactive |
| Vmn1r51 (vomeronasal 1 receptor 51) | SID315469965 | 1.05 | enough cells in well | 168 | 115 | inactive |
| Ftl2-ps (ferritin light polypeptide 2, pseudogene) | SID315466760 | 1.79 | enough cells in well | 523 | 136 | inactive |
| Or2ag18 (olfactory receptor family 2 subfamily AG member 18) | SID315480256 | 0.72 | enough cells in well | 75.7 | 146 | inactive |
| Rasgrp3 (RAS, guanyl releasing protein 3) | SID315479488 | -0.65 | enough cells in well | 185 | 147 | inactive |
| Pkd2l1 (polycystic kidney disease 2-like 1) | SID315481508 | 1.15 | enough cells in well | 205 | 220 | inactive |
| Prickle3 (prickle planar cell polarity protein 3) | SID315471271 | -0.75 | enough cells in well | 169 | 86.5 | inactive |
| Ccne1 (cyclin E1) | SID315465817 | 1.69 | enough cells in well | 421 | 293 | inactive |
| Defb38 (defensin beta 38) | SID315481728 | -1.62 | enough cells in well | 123 | 42.5 | active |
| Tmem252 (transmembrane protein 252) | SID315478460 | -1.43 | enough cells in well | 101 | 68.8 | active |
| Brip1 (BRCA1 interacting protein C-terminal helicase 1) | SID315479373 | – | fewer than 50 cells per well; well left out of calls | 96.1 | 90.8 | inactive |
| Dnai3 (dynein axonemal intermediate chain 3) | SID315479602 | – | fewer than 50 cells per well; well left out of calls | 223 | 55 | inactive |
| Tex13b (testis expressed 13B) | SID315475837 | 1.36 | enough cells in well | 179 | 129 | inactive |
| Or9g19 (olfactory receptor family 9 subfamily G member 19) | SID315480406 | 0.89 | enough cells in well | 253 | 187 | inactive |
| Gabpb2 (GA repeat binding protein, beta 2) | SID315477780 | -1.42 | enough cells in well | 127 | 68.9 | active |
| Sh3rf3 (SH3 domain containing ring finger 3) | SID315479341 | -0.79 | enough cells in well | 114 | 48.8 | inactive |
| Bcl2l10 (Bcl2-like 10) | SID315465616 | -0.46 | enough cells in well | 100 | 168 | inactive |
| Iars1 (isoleucyl-tRNA synthetase 1) | SID315476473 | 1.14 | enough cells in well | 322 | 143 | inactive |
| Dis3l (DIS3 like exosome 3'-5' exoribonuclease) | SID315477816 | 0.58 | enough cells in well | 216 | 185 | inactive |
| Prelp (proline arginine-rich end leucine-rich repeat) | SID315477062 | 1.49 | enough cells in well | 265 | 125 | inactive |
| Polr2h (polymerase (RNA) II (DNA directed) polypeptide H) | SID315479839 | -0.71 | enough cells in well | 108 | 88.9 | inactive |
| Ccdc85a (coiled-coil domain containing 85A) | SID315478014 | -0.78 | enough cells in well | 118 | 98.1 | inactive |
| Acer3 (alkaline ceramidase 3) | SID315472275 | -0.74 | enough cells in well | 111 | 99.9 | inactive |
| Son (Son DNA binding protein) | SID315469376 | -0.51 | enough cells in well | 260 | 154 | inactive |
| Ankfn1 (ankyrin-repeat and fibronectin type III domain containing 1) | SID315477876 | – | fewer than 50 cells per well; well left out of calls | 174 | 62.5 | inactive |
| C3 (complement component 3) | SID315465697 | -0.51 | enough cells in well | 161 | 275 | inactive |
| Cma1 (chymase 1, mast cell) | SID315467871 | -0.49 | enough cells in well | 166 | 116 | inactive |
| Erap1 (endoplasmic reticulum aminopeptidase 1) | SID315475746 | 1.85 | enough cells in well | 302 | 242 | inactive |
| Tm9sf4 (transmembrane 9 superfamily member 4) | SID315476169 | – | fewer than 50 cells per well; well left out of calls | 0 | 105 | inactive |
| Mettl2 (methyltransferase 2, methylcytidine) | SID315471002 | -0.65 | enough cells in well | 127 | 132 | inactive |
| Klrg1 (killer cell lectin-like receptor subfamily G, member 1) | SID315470888 | -0.24 | enough cells in well | 208 | 147 | inactive |
| Slc9a4 | SID315476948 | -0.95 | enough cells in well | 74.2 | 61.6 | inactive |
| Ubd (ubiquitin D) | SID315470327 | -0.54 | enough cells in well | 164 | 216 | inactive |
| Ganc (glucosidase, alpha; neutral C) | SID315475233 | -0.82 | enough cells in well | 169 | 96.5 | inactive |
| Or1ad6 (olfactory receptor family 1 subfamily AD member 6) | SID315480535 | – | fewer than 50 cells per well; well left out of calls | 161 | 126 | inactive |
| Pfdn1 (prefoldin 1) | SID315472894 | 0.13 | enough cells in well | 261 | 182 | inactive |
| Rps13 (ribosomal protein S13) | SID315473391 | – | fewer than 50 cells per well; well left out of calls | 37.8 | 37.9 | inactive |
| Sftpb (surfactant associated protein B) | SID315469201 | -0.57 | enough cells in well | 196 | 198 | inactive |
| Lcp1 (lymphocyte cytosolic protein 1) | SID315468595 | 0.01 | enough cells in well | 217 | 115 | inactive |
| Or10p1 (olfactory receptor family 10 subfamily P member 1) | SID315480554 | – | fewer than 50 cells per well; well left out of calls | 48.5 | 47 | inactive |
| Atp6v0d1 (ATPase, H+ transporting, lysosomal V0 subunit D1) | SID315465563 | 0.62 | enough cells in well | 220 | 186 | inactive |
| Tnfrsf13b (tumor necrosis factor receptor superfamily, member 13b) | SID315471848 | 0.3 | enough cells in well | 252 | 150 | inactive |
| Pcx (pyruvate carboxylase) | SID315468424 | 0.21 | enough cells in well | 273 | 183 | inactive |
| St3gal4 (ST3 beta-galactoside alpha-2,3-sialyltransferase 4) | SID315469237 | -0.63 | enough cells in well | 70 | 78.3 | inactive |
| Or2g1 (olfactory receptor family 2 subfamily G member 1) | SID315480280 | -0.99 | enough cells in well | 140 | 87.7 | inactive |
| Mogs (mannosyl-oligosaccharide glucosidase) | SID315471776 | -0.21 | enough cells in well | 252 | 206 | inactive |
| Cotl1 (coactosin like F-actin binding protein 1) | SID315474430 | 1.18 | enough cells in well | 246 | 258 | inactive |
| Prlr (prolactin receptor) | SID315468706 | 0.07 | enough cells in well | 248 | 200 | inactive |
| Prlr (prolactin receptor) | SID315468707 | -0.4 | enough cells in well | 192 | 149 | inactive |
| Sdf2 (stromal cell derived factor 2) | SID315469151 | 0.46 | enough cells in well | 166 | 130 | inactive |
| Tomm6 (translocase of outer mitochondrial membrane 6) | SID315472226 | 2.49 | enough cells in well | 478 | 143 | inactive |
| Ifnar1 (interferon (alpha and beta) receptor 1) | SID315467394 | 0.65 | enough cells in well | 295 | 226 | inactive |
| Slit2 (slit guidance ligand 2) | SID315469323 | 0.6 | enough cells in well | 280 | 162 | inactive |
| Fam76a (family with sequence similarity 76, member A) | SID315478827 | -1.4 | enough cells in well | 90.5 | 130 | active |
| Krit1 (KRIT1, ankyrin repeat containing) | SID315475671 | -0.13 | enough cells in well | 270 | 166 | inactive |
| Spata24 (spermatogenesis associated 24) | SID315474209 | -0.59 | enough cells in well | 162 | 98.9 | inactive |
| Bzw1 (basic leucine zipper and W2 domains 1) | SID315472694 | 1.5 | enough cells in well | 202 | 249 | inactive |
| Gpr179 (G protein-coupled receptor 179) | SID315478081 | -0.32 | enough cells in well | 153 | 136 | inactive |
| Nfam1 (Nfat activating molecule with ITAM motif 1) | SID315474825 | 0.51 | enough cells in well | 202 | 47.1 | inactive |
